Laboratory results as given in publication PMC2927601.

Target: GST-ALG-2^ΔGF122 (human)
Test: pull-down; GST-fused ALG-2 proteins on glutathione Sepharose beads, cleared lysates of HEK293 cells; pulldown products analysed by Western blotting with specific antibodies; as described previously [40]; only the target purified

- binding: no binding
B1: annexin A7, endogenous protein (protein, UniProt P20073 1-488)
chain: MSYPGYPPTGYPPFPGYPPAGQESSFPPSGQYPYPSGFPPMGGGAYPQVPSSGYPGAGGYPAPGGYPAPGGYPGAPQPGGAPSYPGVPPGQGFGVPPGGAGFSGYPQPPSQSYGGGPAQVPLPGGFPGGQMPSQYPGGQPTYPSQINTDSFSSYPVFSPVSLDYSSEPATVTQVTQGTIRPAANFDAIRDAEILRKAMKGFGTDEQAIVDVVANRSNDQRQKIKAAFKTSYGKDLIKDLKSELSGNMEELILALFMPPTYYDAWSLRKAMQGAGTQERVLIEILCTRTNQEIREIVRCYQSEFGRDLEKDIRSDTSGHFERLLVSMCQGNRDENQSINHQMAQEDAQRLYQAGEGRLGTDESCFNMILATRSFPQLRATMEAYSRMANRDLLSSVSREFSGYVESGLKTILQCALNRPAFFAERLYYAMKGAGTDDSTLVRIVVTRSEIDLVQIKQMFAQMYQKTLGTMIAGDTSGDYRRLLLAIVGQ

Results are given in words; binding and its absence hold for the method and conditions named. In cells and extracts the contact can be indirect.
